From PMC11157819
No constants are given. Whether binding was seen depends on the method and setting. In cells and extracts the contact can be indirect. Some results given as binding are weak or reduced against the parent protein; the word gives no strength.

Sequences of proteins named here, by UniProt entry; tags and fusion partners are left off.
UniProt P40763: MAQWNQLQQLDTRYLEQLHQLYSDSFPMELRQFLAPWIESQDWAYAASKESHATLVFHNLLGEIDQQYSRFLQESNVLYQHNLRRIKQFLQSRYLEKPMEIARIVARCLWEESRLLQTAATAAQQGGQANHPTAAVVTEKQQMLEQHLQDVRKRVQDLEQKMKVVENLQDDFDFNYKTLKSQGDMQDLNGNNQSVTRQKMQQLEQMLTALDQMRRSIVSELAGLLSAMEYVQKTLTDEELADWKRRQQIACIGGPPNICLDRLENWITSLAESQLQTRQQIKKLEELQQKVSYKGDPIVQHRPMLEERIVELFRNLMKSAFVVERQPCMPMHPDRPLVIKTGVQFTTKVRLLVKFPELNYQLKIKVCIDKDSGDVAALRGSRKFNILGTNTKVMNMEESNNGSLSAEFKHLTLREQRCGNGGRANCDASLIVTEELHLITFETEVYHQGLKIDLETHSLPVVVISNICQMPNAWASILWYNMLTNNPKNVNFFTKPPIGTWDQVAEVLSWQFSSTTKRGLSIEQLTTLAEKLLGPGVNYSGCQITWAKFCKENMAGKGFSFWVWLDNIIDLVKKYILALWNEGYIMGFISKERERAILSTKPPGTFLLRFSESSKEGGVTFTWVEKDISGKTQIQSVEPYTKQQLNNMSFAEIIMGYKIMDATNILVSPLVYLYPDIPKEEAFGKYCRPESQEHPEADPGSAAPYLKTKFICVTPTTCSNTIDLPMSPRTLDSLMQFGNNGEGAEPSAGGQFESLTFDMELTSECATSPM
UniProt Q14289: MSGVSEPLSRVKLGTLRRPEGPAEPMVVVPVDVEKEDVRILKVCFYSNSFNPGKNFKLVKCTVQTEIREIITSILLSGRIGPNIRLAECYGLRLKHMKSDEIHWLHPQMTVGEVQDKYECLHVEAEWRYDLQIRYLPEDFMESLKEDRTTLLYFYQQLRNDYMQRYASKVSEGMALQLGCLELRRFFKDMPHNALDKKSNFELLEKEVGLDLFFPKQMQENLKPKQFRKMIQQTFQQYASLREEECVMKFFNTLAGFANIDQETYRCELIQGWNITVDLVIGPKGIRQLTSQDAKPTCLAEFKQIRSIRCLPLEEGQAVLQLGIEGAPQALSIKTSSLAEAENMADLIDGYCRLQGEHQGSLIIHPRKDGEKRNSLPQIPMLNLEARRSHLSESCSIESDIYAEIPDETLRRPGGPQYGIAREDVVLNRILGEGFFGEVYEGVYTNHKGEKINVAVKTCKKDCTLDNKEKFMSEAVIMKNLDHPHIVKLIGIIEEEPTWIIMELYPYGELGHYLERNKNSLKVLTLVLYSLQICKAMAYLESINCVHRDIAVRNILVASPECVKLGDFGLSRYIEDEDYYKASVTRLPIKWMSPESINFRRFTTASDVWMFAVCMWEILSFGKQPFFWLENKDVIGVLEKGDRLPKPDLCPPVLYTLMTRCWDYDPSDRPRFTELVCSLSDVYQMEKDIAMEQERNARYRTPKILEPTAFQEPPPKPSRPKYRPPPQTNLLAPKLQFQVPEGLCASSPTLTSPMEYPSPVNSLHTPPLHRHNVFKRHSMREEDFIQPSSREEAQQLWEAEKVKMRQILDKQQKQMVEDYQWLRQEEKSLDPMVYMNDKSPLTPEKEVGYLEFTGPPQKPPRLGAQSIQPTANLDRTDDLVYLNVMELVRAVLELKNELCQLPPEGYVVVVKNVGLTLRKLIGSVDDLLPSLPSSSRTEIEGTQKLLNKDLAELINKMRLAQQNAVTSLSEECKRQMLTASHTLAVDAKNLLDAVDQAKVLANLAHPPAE

What was measured:
STAT3-MYC = STAT3-MYC (UniProt P40763); assay: co-IP; exogenous co-IP: HEK293T cells transfected with PYK2-FLAG and STAT3-MYC plasmids for 48 h; lysate incubated overnight at 4 °C with antibody, protein A/G beads, western blot
[1] = target: Signal transducer and activator of transcription 3 (STAT3) (human (endogenous in A549 and H460)) (UniProt P40763); assay: co-IP; endogenous co-IP from lysates of confluent NSCLC cells (A549, H460); lysate incubated overnight at 4 °C with 1-2 µg of IgG or antibody against the target protein, protein A/G beads, western blot

binding (STAT3-MYC) | binding [1] | Substance
binds | – | PYK2-FLAG (from UniProt Q14289 1-1009)
– | binds | p-PYK2(Tyr402) (from UniProt Q14289 1-1009)
